Assay results published in paper PMC12362813.
These are yes or no findings as the source states them, for the method shown. Binding can be weak; no strength is given.

Sequences of proteins named here, by UniProt entry; tags and fusion partners are left off. A change or cut given only in a name is not applied to a line headed by its entry.
UniProt Q86WV6: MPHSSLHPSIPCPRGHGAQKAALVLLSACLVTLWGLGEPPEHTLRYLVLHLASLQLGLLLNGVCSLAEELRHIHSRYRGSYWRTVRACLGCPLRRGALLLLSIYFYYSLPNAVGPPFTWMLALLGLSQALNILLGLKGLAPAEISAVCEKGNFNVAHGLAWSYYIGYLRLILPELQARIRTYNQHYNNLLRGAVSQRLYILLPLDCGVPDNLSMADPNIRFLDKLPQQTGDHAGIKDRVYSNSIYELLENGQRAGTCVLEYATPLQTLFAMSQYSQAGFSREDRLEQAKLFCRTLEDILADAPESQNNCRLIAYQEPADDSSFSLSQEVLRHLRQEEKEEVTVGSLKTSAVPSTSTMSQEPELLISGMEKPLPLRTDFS
UniProt Q9UNE7: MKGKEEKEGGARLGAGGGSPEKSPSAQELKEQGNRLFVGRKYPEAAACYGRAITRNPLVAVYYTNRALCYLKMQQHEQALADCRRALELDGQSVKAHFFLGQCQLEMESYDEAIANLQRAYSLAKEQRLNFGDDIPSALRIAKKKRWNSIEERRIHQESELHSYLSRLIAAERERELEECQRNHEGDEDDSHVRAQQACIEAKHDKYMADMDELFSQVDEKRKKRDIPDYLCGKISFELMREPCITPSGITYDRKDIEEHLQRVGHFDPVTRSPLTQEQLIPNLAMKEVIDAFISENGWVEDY
UniProt O95816: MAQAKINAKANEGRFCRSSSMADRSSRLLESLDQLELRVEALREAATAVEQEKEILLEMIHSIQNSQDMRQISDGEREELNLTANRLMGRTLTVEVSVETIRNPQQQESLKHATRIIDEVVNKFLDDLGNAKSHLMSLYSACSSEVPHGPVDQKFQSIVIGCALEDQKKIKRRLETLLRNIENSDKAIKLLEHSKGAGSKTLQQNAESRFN

Target: GST-STING (UniProt Q86WV6)
Test: pull-down; GST pull-down: GST-STING incubated with His-BAG2 or His-STUB1 for 4 h at 4 °C, then glutathione-Sepharose beads for 3 h at 4 °C; eluted with SDS buffer; Western blot; both purified

| binding | Substance |
| --- | --- |
| binds | His-STUB1 (from UniProt Q9UNE7 1-303) (enzyme) |
| binds | His-BAG2 (from UniProt O95816 1-211) |
